Measurements reported in PubChem BioAssay AID1259254 (NCATS, 2017).
Screen: 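Genome-wide screen for genes that prevent DNA re-replication in cancer cells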 (primary screen). Cell system: human HCT116 colorectal cancer cells. Knock-down reagent: single siRNA against human genes. Timing: 3 days. Read-out: 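Nuclei stained with Hoechst and imaged; cell-cycle phase assigned by DNA content; G2 share scaled per plate, non-targeting siRNA 0%, GMNN siRNA 100%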. Direction: G2 robust z-score and G2 cells, % of GMNN control: higher = more G2 cells, more excess DNA replication. Rule for the call: 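Active siRNAs have a G2 robust z of 5 or more median absolute deviations over the median, which in these data means about 38% or higher of GMNN control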.
This is a random part of about 59,000 reagents. In the full data, about 1,550 (2.6%) got an active call. 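G2 share is only a proxy for re-replication; each gene was hit by three separate siRNAs, and active genes were retested.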 Not all columns of the deposit are shown. No sequences are given here. Not stated in the record: the amount of reagent.

POLG2 (GeneID 11232) [SID160730244] showed G2 robust z-score -1.02; G2 cells, % of GMNN control -4.24; inactive.
Depletion of POLG2 (GeneID 11232) [SID160730246] resulted in: G2 robust z-score 1.75; G2 cells, % of GMNN control 15.3; inactive.
After knock-down of POLG2 (GeneID 11232) [SID160730247], the screen gave G2 robust z-score -0.381; G2 cells, % of GMNN control 0.29; inactive.
Silencing of EPHA7 (GeneID 2045) [SID160760929] resulted in: G2 robust z-score -0.298; G2 cells, % of GMNN control 0.869; inactive.
EPHA7 (GeneID 2045) [SID160760938] showed G2 robust z-score 2.36; G2 cells, % of GMNN control 19.6; inactive.
Knock-down of EPHA7 (GeneID 2045) [SID160760947] came out at: G2 robust z-score 0.492; G2 cells, % of GMNN control 6.43; inactive.
Depletion of RPL31P7 (GeneID 654391) [SID160772333] resulted in: G2 robust z-score 5.17; G2 cells, % of GMNN control 39.3; active.
RPL31P7 (GeneID 654391) [SID160772335] scored G2 robust z-score -0.212; G2 cells, % of GMNN control 1.47; inactive.
Against RPL31P7 (GeneID 654391) [SID160772336], the values are G2 robust z-score 4.46; G2 cells, % of GMNN control 34.3; inactive.
After knock-down of NT5E (GeneID 4907) [SID160778254], the screen gave G2 robust z-score 1.57; G2 cells, % of GMNN control 14; inactive.
Silencing of NT5E (GeneID 4907) [SID160778255] came out at: G2 robust z-score 0.903; G2 cells, % of GMNN control 9.32; inactive.
Silencing of NT5E (GeneID 4907) [SID160778256] resulted in: G2 robust z-score -1.25; G2 cells, % of GMNN control -5.8; inactive.
With knock-down of RPL31P45 (GeneID 729308) [SID160726996] the results were G2 robust z-score -0.497; G2 cells, % of GMNN control -0.532; inactive.
After knock-down of RPL31P45 (GeneID 729308) [SID160772648] the results were G2 robust z-score -0.337; G2 cells, % of GMNN control 0.597; inactive.
With knock-down of RPL31P45 (GeneID 729308) [SID160772649] the results were G2 robust z-score -0.554; G2 cells, % of GMNN control -0.929; inactive.
L1TD1 (GeneID 54596) [SID160741961] showed G2 robust z-score -1.22; G2 cells, % of GMNN control -5.64; inactive.
After knock-down of L1TD1 (GeneID 54596) [SID160741962], the record shows G2 robust z-score 3.42; G2 cells, % of GMNN control 27.1; inactive.
L1TD1 (GeneID 54596) [SID160741963] showed G2 robust z-score 0.0305; G2 cells, % of GMNN control 3.18; inactive.

2 entries from above, reformatted:
{"target gene": "NT5E (GeneID 4907)", "PubChem SID": "SID160778255", "G2 robust z-score": 0.903, "G2 cells, % of GMNN control": 9.32, "Outcome": "inactive"}
{"target gene": "NT5E (GeneID 4907)", "PubChem SID": "SID160778256", "G2 robust z-score": -1.25, "G2 cells, % of GMNN control": -5.8, "Outcome": "inactive"}
